Experimental data reported in patent US20260183276A1, “miRNA DYSREGULATION CORRECTION AS A STRATEGY TO TREAT HUNTINGTON'S DISEASE” (The Chinese University of Hong Kong, priority 2022, published 2026).
At least one structure is not confirmed: it was looked up by name or label, or the drawing left a doubt.

How the values were obtained:
Assay type in all cases: cell-based
[1] = test system: EGFPCAG78-expressing SK-N-MC cells; test: LDH cell death assay, EGFPCAG78-expressing SK-N-MC cells
Protocol: (§1) SK-N-MC cells (ATCC) were cultured in DMEM (GE Healthcare BioSciences) supplemented with 10% fetal bovine serum and 1% penicillin-streptomycin. Cells were maintained in a 37° C. humidified cell culture incubator supplemented with 5% CO2. Plasmid DNA and siRNA/synthetic miRNA transfection was performed using Lipofectamine 2000 (Thermo Fisher Scientific) and Lipofectamine RNAiMAX (Thermo Fisher Scientific), respectively.
(§2) The LDH assay on SK-N-MC cells were performed according to manufacturer's instructions (CytoTox 96 Non-Radioactive Cytotoxicity Assay Kit, Promega).

[2] = test system: PAPD5-overexpressing cells; test: LDH cell death assay, PAPD5-overexpressing cells; conditions: PAPD5 overexpression
Protocol: as §1, §2

[3] = test system: EGFP-Htt1-550CAG89-expressing SK-N-MC cells; test: LDH cell death assay, EGFP-Htt1-550CAG89-expressing SK-N-MC cells
Protocol: as §1, §2

[4] = test system: TAK1-MKK4-JNK pro-apoptotic signaling in PAPD5-overexpressing cells; test: Western blotting of TAK1-MKK4-JNK caspase cascade, PAPD5-overexpressing cells
Protocol: as §1
(§3) Proteins were extracted from SK-N-MC cells or mouse primary cortical neurons using SDS sample buffer. For protein extraction from mice, half of the brain was homogenized in protein lysis buffer (50 mM Tris-HCl, pH 7.6, 150 mM NaCl, 10% NP40, 5% sodium deoxycholate). All protein samples were boiled at 99° C. for 10 minutes, prior to Western blotting. Primary antibodies used were anti-PAPD5 (PA5-46747, 1:1,000) from Invitrogen; anti-p-TAK1 (4536, 1:1,000), anti-t-TAK1 (4505, 1:2,000), anti-p-MKK4 (9156, 1:1,000), anti-t-MKK4 (9152, 1:2,000), anti-p-MKK7 (4171, 1:1,000), anti-t-MKK7 (4172, 1:2,000), anti-p-JNK (9251, 1:2,000), anti-t-JNK (9252, 1:2,000), anti-TAB1 (3226, 1:2,000), anti-TAB2 (3745, 1:2,000), anti-cleaved caspase 3 (9664, 1:500) and anti-myc (2276, 1:2,000) from Cell Signaling Technology; antipolyQ (P1874, 1:1,000) and anti-HA (H3663, 1:2,000) from Sigma-Aldrich; anti-YY1 (ab109237, 1:2000) and anti-β-tubulin (ab6046, 1:2,000) from Abcam, and anti-GFP (JL-8, 1:4,000) from Clontech. Secondary antibodies used were goat anti-rabbit (11035-045, 1:5,000) and goat anti-mouse (115-035-062, 1:5,000) from Jackson ImmunoResearch.

[5] = test system: TAK1-MKK4-JNK pro-apoptotic signaling in EGFPCAG78-expressing cells; test: Western blotting of TAK1-MKK4-JNK caspase cascade, EGFPCAG78-expressing cells
Protocol: as §1
Proteins were extracted from SK-N-MC cells or mouse primary cortical neurons using SDS sample buffer. For protein extraction from mice, half of the brain was homogenized in protein lysis buffer (50 mM Tris-HCl, pH 7.6, 150 mM NaCl, 10% NP40, 5% sodium deoxycholate). All protein samples were boiled at 99° C. for 10 minutes, prior to Western blotting. […]

[6] = test system: TAK1-MKK4-JNK pro-apoptotic signaling in EGFP-Htt1-550CAG89-expressing cells; test: Western blotting of TAK1-MKK4-JNK caspase cascade, EGFP-Htt1-550CAG89-expressing SK-N-MC cells
Protocol: as §1, §3

`Oc1c2ccccc2c2c3c(cccc13)N=N2` [SP600125] was tested, and the “mutant CAG RNA (EGFPCAG78)-induced cell death” value [1] was “rescued”, the PAPD5-induced cell death [2] was “completely blocked” and the EGFP-Htt1-550CAG89-induced cell death [3] was “attenuated”. For the same compound, the JNK phosphorylation [4] was “inhibited”, the “TAK1 and MKK4 phosphorylation levels” value [4] was “remained unchanged” and the “caspase 3 cleavage” value [4] was “inhibited”. The “phosphorylation of JNK and cleavage of caspase 3” value [5] was “attenuated”, the “caspase 3 cleavage” value ([6]; EGFP-Htt1-550CAG89-expressing SK-N-MC cells) was “attenuated” and the “TAK1 or MKK4 phosphorylation levels” value ([6]; EGFP-Htt1-550CAG89-expressing cells) was “did not alter”. For the same compound, the “phosphorylation of JNK” value ([6]; EGFP-Htt1-550CAG89-transfected cells) was “attenuated”.
